# No constants are given. Whether binding was seen depends on the method and setting. Binding seen in cells or lysates may run through a third protein. Binding can be weak; no strength is given.
# Chains of the proteins cited; added tags and fusions are not shown. Lines headed by an entry give the natural chain unless they say otherwise; changes in a name come on top.
# UniProt F1SED4: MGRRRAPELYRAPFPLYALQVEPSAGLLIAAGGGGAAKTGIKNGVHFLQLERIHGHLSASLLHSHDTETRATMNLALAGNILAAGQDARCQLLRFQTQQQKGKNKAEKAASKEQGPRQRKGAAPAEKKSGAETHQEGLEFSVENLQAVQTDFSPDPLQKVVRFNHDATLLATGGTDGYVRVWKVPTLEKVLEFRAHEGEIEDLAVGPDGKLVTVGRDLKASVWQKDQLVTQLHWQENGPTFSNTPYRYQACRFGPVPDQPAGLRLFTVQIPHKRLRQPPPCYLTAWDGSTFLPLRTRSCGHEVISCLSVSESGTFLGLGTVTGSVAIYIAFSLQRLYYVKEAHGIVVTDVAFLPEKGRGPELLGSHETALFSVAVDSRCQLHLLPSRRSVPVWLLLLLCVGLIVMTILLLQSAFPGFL
# B1: FMDV 3A protein of strain O/TAW/97 (protein, UniProt Q6PMV1 1426-1568)
# chain: ISIPSQKSVLYFLIEKGQHEAAIEFFEGMVHDSIKEELRPLIQQTSFVKRAFKRLKENFEVVALCLTLLANIVIMLRQARKRYQSVDDPLDGDVTLGDAEKNPLETSGASAVGFRERSPTEQGTREDANAEPVVFGREQPRAE
# Molecular target: Sec12 from swine, FLAG-tagged (vTF7-3 system) (swine) (UniProt F1SED4)
# Test: co-IP
binder,measurement,value
B1,binding,binds

# Reference: PMC9028839
